This data set relates to c-myc. The data set can be described thus: SPR. The note with it: SPR (OpenSPR, streptavidin sensor): 20 mM HEPES, 150 mM NaCl, pH 7.4, 20 ul/min, 3% BSA block, described for DHA-oligo, c-myc conditions and temperature not stated, recombinant protein, single-stranded DNA.

For at least one entry, the source does not settle the construct or the ends of the probe. The comparison behind a weaker result is the experiment's own reference, which may not be listed here. At least one verdict rests on a figure or table, not on a statement of the authors.

As to “TCAGCCTCGGAGGCATCAGC [PD-L1p9C (biotinylated)]”, the binding result is, setting by setting: (with DHA (inhibits c-myc recruitment, P = 0.0002)) “binds more weakly”; (without DHA) “binds”.

(Values after publication PMC11790884.)
